# Source: the supplement of paper PMC5949888
# ± gives the standard deviation of the averaged measurements. Most values lie at the floor of the assay. Slopes are relative: functional sequences can read slightly below zero.
# Test system: Saccharomyces cerevisiae PS128 hsf1 delta, HSF1(1-493) fusion
# Assay: growth estimate (transactivation domain function in HSF1 fusion, heat-shock survival) (a.u. (slope of normalised read count over time)); higher = stronger growth at 37°C, i.e. more transactivation activity
# Conditions: library: random library
row,Substance,growth estimate
1,QTTAVSTVVDPWRMPGRITI,< -0.25
2,QTVNATGRARQSRTIPSTQA,< -0.25
3,QVCIIPRDITPRDDLSRNLG,< -0.25
4,QVDVLLKLILLVKRKTVRFQ,< -0.25
5,QVEPPTIRA,< -0.25
6,QVFHRPTLNDVRVDAPTLSV,< -0.25
7,QVGKSVEVYGGVGIHEVCHP,< -0.25
8,QVGVTVCPRECFV,< -0.25
9,QVHALQAISPDGALDPGPPV,< -0.25
10,QVI,< -0.25
11,QVIACAR,< -0.25
12,QVKDQRRGRVPEKRVQRWNL,< -0.25
13,QVKGEQALAE,< -0.25
14,QVMGVPTSAMRIRLSRWLEP,< -0.25
15,QVQGTLRFPRIENDWVCCKG,< -0.25
16,QVQPQMSTVAVVLVVATSHF,< -0.25
17,QVR,-0.246 ± 0.0076
18,QVTVVSGADEYKPLRRSIPG,< -0.25
19,QVYDSFRYALPGVEYTCFGL,< -0.25
20,QVYRRI,< -0.25
21,QWCCHTRRRRWGISSTASRT,< -0.25
22,QWES,< -0.25
23,QWGADAVRLSPQKIELVSKP,< -0.25
24,QWYDCKSIILDEYKADGPLS,< -0.25
25,QYEGVRRNHADSNTVIKRMP,< -0.25

row,Substance,growth estimate
1,QYFCLVFKGGLT,< -0.25
2,QYGVDKGILKMITSTVVAVM,< -0.25
3,QYGVTSRY,< -0.25
4,QYHLNACNLPL,< -0.25
5,QYIGACTIHLTDCGRSWCGS,< -0.25
6,QYLGGHSPVRLPFRRTALLL,< -0.25
7,QYLKLVRRFGGYFCGCL,< -0.25
8,QYLSIPPRTDSMS,< -0.25
9,QYLTRSSYVLITRYCLFQAT,< -0.25
10,QYLVGG,< -0.25
11,QYPKCCCAAPAP,< -0.25
12,QYQPSWLIYRRGTFKRRMGK,< -0.25
13,QYRPHAREVVGPNKGFCHG,< -0.25
14,QYRWGVVRVCLEHLVH,< -0.25
15,QYSTFRIGSGGADNSIEHAL,< -0.25
16,QYTA,< -0.25
17,QYVNPG,< -0.25
18,RAAPKVEVFGFSTTITSLRV,< -0.25
19,RACHSCPRSDRFPTVLVSPC,< -0.25
20,RACKLQGYWRVWSACCDVYS,< -0.25
21,RACQQEELAAFIVRC,< -0.25
22,RADARLQSHYCWPERHRLGH,-0.246
23,RADIPLRHRN,< -0.25
24,RADTFSRTYWFGVICLG,< -0.25
25,RADTSGTRWLTFEPDRVMII,< -0.25

# Random excerpt: four entries already listed.
row,Substance,growth estimate
6,QVFHRPTLNDVRVDAPTLSV,< -0.25
1,QTTAVSTVVDPWRMPGRITI,< -0.25
20,QVYRRI,< -0.25
10,QYLVGG,< -0.25

# (cont.)

row,Substance,growth estimate
1,RAEAPVRQARERTTEKLRAP,< -0.25
2,RAEAQ,< -0.25
3,RAESQASGIRAVADASVVTR,< -0.25
4,RAFSVYNGKPPSHYLTVVIR,< -0.25
5,RAGIWVVSI,< -0.25
6,RAGNGAH,< -0.25
7,RAGRT,< -0.25
8,RAIGSLRGGGLPKLEDTSNS,< -0.25
9,RAIHPFQIRLFSDFPGGHPL,-0.203
10,RAITQQPL,< -0.25
11,RAIVPL,< -0.25
12,RAL,< -0.25
13,RALIGYGRSHHQYVLQYSCP,< -0.25
14,RALKKRTGASSP,< -0.25
15,RALS,< -0.25
16,RAMP,< -0.25
17,RAN,< -0.25
18,RANFRNQDGPLWSRSSLVPV,< -0.25
19,RAPTDNVQTCRDVRLSLMDQ,< -0.25
20,RAR,< -0.25
21,RARGGRIPLHVRKPVRLSIA,< -0.25
22,RARHESTLIPGGNSP,< -0.25
23,RARRLLQTHIHGHRTWSSFG,< -0.25
24,RARRPHVQDSPKDVRGGSPT,< -0.25
25,RASALWPPFLDWHGQVLTTY,< -0.25

row,Substance,growth estimate
1,RASCIVPPC,< -0.25
2,RASEIGTETRSGPPIMCVAP,< -0.25
3,RASELHRHRGQFLEVRRNRK,< -0.25
4,RASI,< -0.25
5,RASKESIEMGVADWGDILVR,< -0.25
6,RASRASGEETPKLRYRVHLP,< -0.25
7,RATAAGVPKGSLNCIPGINL,< -0.25
8,RATFVSIGRRDLGA,< -0.25
9,RATRSQRSPDTALVTFP,< -0.25
10,RAVHLREVSCPLILVPHGAI,< -0.25
11,RAVIMAYIWASSLSLLRISA,< -0.25
12,RAVMVSPPVVRRKASGR,< -0.25
13,RAVWRI,< -0.25
14,RAWGVNSTT,< -0.25
15,RAWYGWGFSGGVCIPNITRR,< -0.25
16,RAYICGGCNCRGVWLESDYP,< -0.25
17,RAYLFPATEVTRLRHLLSSR,< -0.25
18,RAYRRDPRTDRDPETTLSQM,< -0.25
19,RCAQENI,< -0.25
20,RCCNG,< -0.25
21,RCETWSHSGSCLGRS,< -0.25
22,RCEWSRLLRA,< -0.25
23,RCFVFTMCHGGNRTLWMCAD,< -0.25
24,RCFYRLTWQWLHGG,< -0.25
25,RCGENITTYARVTLR,< -0.25

# In a second layout: results already given
row	Substance	growth estimate
9	RATRSQRSPDTALVTFP	< -0.25
10	RAVHLREVSCPLILVPHGAI	< -0.25
11	RAVIMAYIWASSLSLLRISA	< -0.25
